Laboratory results as given in article PMC6883062.
These are yes or no findings as the source states them, for the method shown. In cells and extracts the contact can be indirect. Some results given as binding are weak or reduced against the parent protein; the word gives no strength.

Protein sequences, listed by entry. Tags and fused reporters are not part of them.
UniProt O35800: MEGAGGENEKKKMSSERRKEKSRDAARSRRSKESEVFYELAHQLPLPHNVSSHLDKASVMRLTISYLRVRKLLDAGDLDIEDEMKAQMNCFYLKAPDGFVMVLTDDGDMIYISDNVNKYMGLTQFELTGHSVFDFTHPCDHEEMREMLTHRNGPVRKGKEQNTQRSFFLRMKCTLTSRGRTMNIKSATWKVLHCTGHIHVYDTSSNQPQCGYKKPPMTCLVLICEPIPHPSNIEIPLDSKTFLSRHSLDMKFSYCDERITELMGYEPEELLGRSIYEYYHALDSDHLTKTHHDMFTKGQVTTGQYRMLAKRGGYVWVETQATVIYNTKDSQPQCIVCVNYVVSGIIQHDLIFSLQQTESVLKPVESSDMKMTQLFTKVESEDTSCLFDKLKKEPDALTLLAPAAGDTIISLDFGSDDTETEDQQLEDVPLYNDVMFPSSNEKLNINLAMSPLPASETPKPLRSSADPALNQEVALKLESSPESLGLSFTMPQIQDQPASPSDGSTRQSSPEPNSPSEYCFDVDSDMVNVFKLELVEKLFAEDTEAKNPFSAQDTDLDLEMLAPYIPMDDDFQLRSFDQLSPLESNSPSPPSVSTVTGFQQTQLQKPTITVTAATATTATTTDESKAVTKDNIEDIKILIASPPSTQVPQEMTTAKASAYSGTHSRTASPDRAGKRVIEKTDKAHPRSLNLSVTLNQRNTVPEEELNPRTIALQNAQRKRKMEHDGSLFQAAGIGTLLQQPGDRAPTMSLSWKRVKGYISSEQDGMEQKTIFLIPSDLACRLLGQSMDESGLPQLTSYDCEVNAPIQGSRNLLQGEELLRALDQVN

Target: T1, β-catenin (rat (endogenous in NRCM)) (UniProt Q9WU82)
T1 sequence: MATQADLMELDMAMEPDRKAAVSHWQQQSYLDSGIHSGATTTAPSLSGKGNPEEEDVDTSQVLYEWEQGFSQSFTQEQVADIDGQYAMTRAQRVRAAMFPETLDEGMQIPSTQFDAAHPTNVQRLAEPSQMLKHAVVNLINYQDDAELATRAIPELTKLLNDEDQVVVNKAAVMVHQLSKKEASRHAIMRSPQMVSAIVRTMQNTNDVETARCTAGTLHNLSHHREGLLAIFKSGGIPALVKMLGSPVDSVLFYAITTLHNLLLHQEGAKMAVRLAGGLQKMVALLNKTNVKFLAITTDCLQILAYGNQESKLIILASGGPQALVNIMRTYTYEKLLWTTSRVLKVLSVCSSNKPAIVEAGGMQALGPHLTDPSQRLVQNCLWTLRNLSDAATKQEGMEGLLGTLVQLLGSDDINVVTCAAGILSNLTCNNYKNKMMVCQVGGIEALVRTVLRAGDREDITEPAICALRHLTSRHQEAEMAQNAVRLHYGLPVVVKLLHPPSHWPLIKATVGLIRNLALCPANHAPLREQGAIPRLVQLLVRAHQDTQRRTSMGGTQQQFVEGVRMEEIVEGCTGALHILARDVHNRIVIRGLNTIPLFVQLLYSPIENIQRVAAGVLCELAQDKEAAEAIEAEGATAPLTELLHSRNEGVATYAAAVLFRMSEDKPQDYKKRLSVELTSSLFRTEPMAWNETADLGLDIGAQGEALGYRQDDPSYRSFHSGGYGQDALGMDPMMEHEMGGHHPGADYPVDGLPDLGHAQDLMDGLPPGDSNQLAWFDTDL
Assay: co-IP; cultured cells under hypoxia lysed in IP lysis buffer with 1% PMSF; antibodies and Protein A/G agarose beads overnight at 4 °C; five washes; western blot; forward and reverse co-IPs

binding: binds
Substance: Hif-1α (from UniProt O35800 1-825)
